Source: US9993414B2, “Oral care composition comprising an Amadori compound” (Colgate-Palmolive Company, priority 2012, dated 2018)
Some entries share one result that the patent states for a list of compounds.

System: S. mutans (ATCC #25175)
Assay: Inhibition of biofilm formation, crystal violet staining in saliva-coated 96-well plate
Format: cell-based, Streptococcus mutans
Settings: 1 wt % glucose and 2 wt % Amadori compound, versus no Amadori compound
Method: In this Example, the ability of Amadori compound from the reaction of glucose with glycine to inhibit biofilm formation was investigated. A sample of cultured S. mutans (ATCC #25175) bacterium was grown in TSB medium overnight and subsequently centrifuged to form a pellet, and then the centrifuged S. mutans was re-suspended with TSB (trypticase soy broth) containing 1% glucose and adjusted to OD610=0.5 (a concentration with an optical reading of 0.5 at 610 nm for a 1-cm light path). A 50 microliter sample of the re-suspended S. mutans (OD610=0.5) was co-incubated with a 50 microliter test sample. The test sample contained 1 wt % of glucose and 2 wt % of Amadori compound from the reaction of glucose with glycine. The 100 μL total of the re-suspended S. mutans (OD610=0.5) and test sample, representing a clarified saliva, was co-incubated in a 96-well plate which was pre-coated with the clarified saliva and then left overnight at 37° C. After the co-incubation period, the supernatant liquid was aspirated from the well plate. A 50 microliter amount of crystal violet was added to each well and permitted to stain any biofilm for a period of 10 minutes. The well plate was washed with 100 μL of PBS. The amount of biofilm was determined by irradiating the well plate with electromagnetic radiation having a wavelength of 590 nm and measuring the absorbance. The lower the absorbance reading, the less the amount of biofilm detected.

For `O=C(O)CNCC(=O)[C@@H](O)[C@H](O)[C@H](O)CO` [Example 1, N-(1-deoxy-fructos-1-yl)glycine], the “Inhibition against biofilm formation (in words)” value (shortened to “Inhibition”) (listed as Example 6) was “the biofilm was inhibited”.
In the case of `N=C(N)NCCC[C@H](NCC(=O)[C@@H](O)[C@H](O)[C@H](O)CO)C(=O)O` [Example 2, N-(1-deoxy-fructos-1-yl) arginine], the “Inhibition” value (listed as Example 7) is reported as “the biofilm was inhibited”.
In the case of `O=C(O)CC[C@H](NCC(=O)[C@@H](O)[C@H](O)[C@H](O)CO)C(=O)O` [Example 4, N-(1-deoxy-fructos-1-yl)glutamic acid], the “Inhibition” value (listed as Example 8) is reported as “the biofilm was inhibited”.
